Laboratory results from patent US6359194.
These are yes or no findings as the source states them, for the method shown. For part of these data: Binding seen in cells or lysates may run through a third protein. Some results given as binding are weak or reduced against the parent protein; the word gives no strength. Sequences can lack the tags named with a protein.

Sequences of proteins named here, by UniProt entry; tags and fusion partners are left off. A change or cut given only in a name is not applied to a line headed by its entry.
UniProt P04386: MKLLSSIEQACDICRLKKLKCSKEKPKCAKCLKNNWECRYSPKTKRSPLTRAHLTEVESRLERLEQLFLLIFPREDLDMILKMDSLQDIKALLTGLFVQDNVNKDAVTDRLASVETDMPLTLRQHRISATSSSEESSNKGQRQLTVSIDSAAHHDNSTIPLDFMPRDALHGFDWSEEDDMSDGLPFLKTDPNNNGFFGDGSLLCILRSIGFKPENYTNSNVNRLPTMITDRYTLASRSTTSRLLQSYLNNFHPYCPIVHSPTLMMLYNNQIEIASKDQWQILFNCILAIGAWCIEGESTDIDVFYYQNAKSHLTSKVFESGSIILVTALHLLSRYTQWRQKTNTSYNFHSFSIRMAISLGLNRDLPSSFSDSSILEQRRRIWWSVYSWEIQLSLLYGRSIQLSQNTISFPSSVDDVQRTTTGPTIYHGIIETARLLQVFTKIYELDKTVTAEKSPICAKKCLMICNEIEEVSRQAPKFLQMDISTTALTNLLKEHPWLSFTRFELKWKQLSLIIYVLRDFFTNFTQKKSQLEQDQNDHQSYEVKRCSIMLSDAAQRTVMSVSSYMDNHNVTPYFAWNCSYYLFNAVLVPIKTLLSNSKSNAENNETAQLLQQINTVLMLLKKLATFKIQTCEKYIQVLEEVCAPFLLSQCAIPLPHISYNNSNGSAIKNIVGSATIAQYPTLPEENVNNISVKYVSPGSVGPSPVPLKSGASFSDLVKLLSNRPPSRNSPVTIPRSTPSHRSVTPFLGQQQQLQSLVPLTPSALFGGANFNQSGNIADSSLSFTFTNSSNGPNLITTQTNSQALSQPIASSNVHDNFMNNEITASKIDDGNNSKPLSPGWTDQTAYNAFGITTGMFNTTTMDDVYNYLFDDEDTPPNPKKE
UniProt O15105: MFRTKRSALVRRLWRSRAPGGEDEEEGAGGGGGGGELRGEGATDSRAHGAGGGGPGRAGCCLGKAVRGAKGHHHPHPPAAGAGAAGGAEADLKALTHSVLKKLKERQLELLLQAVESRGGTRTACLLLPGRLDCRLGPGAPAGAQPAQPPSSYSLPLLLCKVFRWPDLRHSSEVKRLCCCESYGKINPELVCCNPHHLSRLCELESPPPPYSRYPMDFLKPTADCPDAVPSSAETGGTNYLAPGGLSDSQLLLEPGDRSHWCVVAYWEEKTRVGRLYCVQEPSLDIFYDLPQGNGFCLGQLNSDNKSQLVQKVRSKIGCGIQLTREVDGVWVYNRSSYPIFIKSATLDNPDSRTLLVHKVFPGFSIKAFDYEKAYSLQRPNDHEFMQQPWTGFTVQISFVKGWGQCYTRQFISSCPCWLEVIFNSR
UniProt Q13485: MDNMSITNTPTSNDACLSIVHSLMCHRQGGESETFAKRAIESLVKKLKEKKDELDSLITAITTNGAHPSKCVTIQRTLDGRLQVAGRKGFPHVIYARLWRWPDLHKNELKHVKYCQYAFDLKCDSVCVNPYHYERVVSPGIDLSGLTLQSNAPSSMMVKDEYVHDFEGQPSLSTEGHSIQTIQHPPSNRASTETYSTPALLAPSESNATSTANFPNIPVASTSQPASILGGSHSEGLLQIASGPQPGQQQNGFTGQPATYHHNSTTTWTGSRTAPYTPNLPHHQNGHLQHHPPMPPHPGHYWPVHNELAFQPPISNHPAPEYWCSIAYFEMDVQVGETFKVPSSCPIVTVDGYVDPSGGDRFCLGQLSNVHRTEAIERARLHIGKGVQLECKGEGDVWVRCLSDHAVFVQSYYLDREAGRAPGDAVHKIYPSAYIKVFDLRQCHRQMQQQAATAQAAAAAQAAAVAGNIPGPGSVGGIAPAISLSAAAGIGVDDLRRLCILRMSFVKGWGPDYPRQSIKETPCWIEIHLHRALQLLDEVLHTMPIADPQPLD
UniProt Q15797: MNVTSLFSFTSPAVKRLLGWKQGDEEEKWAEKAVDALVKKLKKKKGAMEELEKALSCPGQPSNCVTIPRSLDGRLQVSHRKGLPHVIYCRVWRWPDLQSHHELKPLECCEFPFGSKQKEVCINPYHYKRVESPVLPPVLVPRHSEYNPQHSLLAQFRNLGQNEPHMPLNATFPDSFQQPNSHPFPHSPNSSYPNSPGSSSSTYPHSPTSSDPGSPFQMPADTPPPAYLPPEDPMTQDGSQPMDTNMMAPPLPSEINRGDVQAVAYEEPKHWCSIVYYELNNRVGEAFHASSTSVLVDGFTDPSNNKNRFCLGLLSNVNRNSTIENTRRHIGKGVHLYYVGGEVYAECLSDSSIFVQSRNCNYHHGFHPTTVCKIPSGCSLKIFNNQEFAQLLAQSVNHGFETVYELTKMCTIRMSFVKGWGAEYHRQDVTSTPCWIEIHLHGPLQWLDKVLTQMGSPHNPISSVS
UniProt Q15796: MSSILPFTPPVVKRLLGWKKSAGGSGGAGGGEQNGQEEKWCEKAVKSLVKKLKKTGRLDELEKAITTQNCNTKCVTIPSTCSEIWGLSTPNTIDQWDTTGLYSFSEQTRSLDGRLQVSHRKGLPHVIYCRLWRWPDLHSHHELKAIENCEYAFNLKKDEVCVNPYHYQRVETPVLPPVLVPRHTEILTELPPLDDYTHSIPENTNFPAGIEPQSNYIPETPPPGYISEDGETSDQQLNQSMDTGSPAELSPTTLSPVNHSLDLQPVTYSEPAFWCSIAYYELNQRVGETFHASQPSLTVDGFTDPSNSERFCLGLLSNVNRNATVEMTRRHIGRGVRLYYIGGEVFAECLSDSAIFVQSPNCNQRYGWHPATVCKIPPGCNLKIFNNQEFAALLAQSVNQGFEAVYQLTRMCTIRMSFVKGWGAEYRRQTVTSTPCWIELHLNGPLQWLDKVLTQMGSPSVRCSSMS

Tests used:
[1] = molecular target: T1, GAL4 DNA-binding domain-fchd540 fusion (human) (UniProt P04386+O15105); experiment: yeast two-hybrid mating assay (HIS3 and lacZ reporters)
[2] = molecular target: DPC4 (transfected 293 cells or BAECs) (UniProt Q13485); experiment: co-immunoprecipitation from transfected 293 cells and BAECs; much greater in BAECs for DPC4
[3] = molecular target: rchd534 protein fused to a flag peptide (transfected 293 cells or BAECs) (human) (UniProt O43541); experiment: co-immunoprecipitation (summary at the head of the example)
[4] = molecular target: fchd540 protein fused to a flag peptide (transfected 293 cells or BAECs) (human) (UniProt O15105); experiment: co-immunoprecipitation from transfected 293 cells and BAECs; said to be significantly less avid than the rchd534 protein's interaction with itself
MADR1 [5] = molecular target: MADR1 (UniProt Q15797); experiment: co-immunoprecipitation (summary at the head of the example; strongly, endothelial cells)
[6] = molecular target: DPC4 (transfected 293 cells or BAECs) (UniProt Q13485); experiment: as above
MADR2 [7] = molecular target: MADR2 (UniProt Q15796); experiment: as above
[8] = molecular target: rchd534 protein fused to a flag peptide (transfected 293 cells or BAECs) (human) (UniProt O43541); experiment: co-immunoprecipitation from transfected 293 cells and BAECs
[9] = molecular target: fchd540 protein fused to a flag peptide (transfected 293 cells or BAECs) (human) (UniProt O15105); experiment: as above
MADR1 [10] = molecular target: MADR1 (UniProt Q15797); experiment: as above
MADR2 [11] = molecular target: MADR2 (UniProt Q15796); experiment: as above
[12] = molecular target: T1, GAL4 DNA-binding domain-fchd540 fusion (human); experiment: yeast two-hybrid screen of a human breast library with fchd540 bait (strain TB35)

Measured: binding

B1: GAL4 transcriptional activation domain-rchd534 fusion (protein, human, UniProt O43541-2 1-235, looked up, not shown: large carriers)
chain: MSRMGKPIETQKSPPPPYSRLSPRDEYKPLDLSDSTLSYTETEATNSLITAPGEFSDASMSPDATKPSHWCSVAYWEHRTRVGRLYAVYDQAVSIFYDLPQGSGFCLGQLNLEQRSESVRRTRSKIGFGILLSKEPDGVWAYNRGEHPIFVNSPTLDAPGGRALVVRKVPPGYSIKVFDFERSGLQHAPEPDAADGPYDPNSVRISFAKGWGPCYSRQFITSCPCWLEILLNNPR
binds: [1]

B2: rchd534 protein fused to a flag peptide (transfected 293 cells or BAECs) (protein, human, UniProt O43541-2 1-235, looked up, not shown: small tags and cut ends)
chain: B1 chain
binds: [2] | [3] | [4] | MADR1 [5] | [6] | MADR2 [7] | [8] | [9] | MADR1 [10] | MADR2 [11]

B3: tchv03A (GAL4 activation domain fusion to amino acids 17-235 of rchd534) (protein, not shown: large carriers)
chain: PYSRLSPRDEYKPLDLSDSTLSYTETEATNSLITAPGEFSDASMSPDATKPSHWCSVAYWEHRTRVGRLYAVYDQAVSIFYDLPQGSGFCLGQLNLEQRSESVRRTRSKIGFGILLSKEPDGVWAYNRGEHPIFVNSPTLDAPGGRALVVRKVPPGYSIKVFDFERSGLQHAPEPDAADGPYDPNSVRISFAKGWGPCYSRQFITSCPCWLEILLNNPR
binds: [1] | [12]

B4: tchvR4A (GAL4 activation domain fusion to amino acids 25-235 of rchd534) (protein, not shown: large carriers)
chain: DEYKPLDLSDSTLSYTETEATNSLITAPGEFSDASMSPDATKPSHWCSVAYWEHRTRVGRLYAVYDQAVSIFYDLPQGSGFCLGQLNLEQRSESVRRTRSKIGFGILLSKEPDGVWAYNRGEHPIFVNSPTLDAPGGRALVVRKVPPGYSIKVFDFERSGLQHAPEPDAADGPYDPNSVRISFAKGWGPCYSRQFITSCPCWLEILLNNPR
binds: [1] | [12]
